The results in this text go back to PMC12670160, “A drug-repurposing screen of FDA- and EMA-approved drugs identifies two NF-κB inhibitors active against eumycetoma” (Journal of Antimicrobial Chemotherapy, 2025).

Counter-ions that a name gives are not always drawn. Screen size: about 5,300 compounds; about 130 (2.5%) showed an effect of 50% or more. This is one part of the list.

In the assay the test system is M. mycetomatis strain mm55. As to conditions: primary screen, metabolic activity vs growth control; 96 h, 2 µM; inhibitor.
On to `COc1cc2c(cc1OC)CN(CCc1ccc(NC(=O)c3cc(OC)c(OC)cc3NC(=O)c3cnc4ccccc4c3)cc1)CC2` [ONC0004365, tariquidar], for which the “% viability” value was 119.7%. As for `CN(CCc1ccc(Cl)c(Cl)c1)CCN1CCCC1` [ONC0000135, bd1008], the figure is 97.22%; as for `COc1cc(Cc2cnc(N)nc2N)cc(OC)c1OC` [ONC0003250, trimethoprim], 82.12%; as for `COc1ccc([C@H]2CNC(=O)C2)cc1OC1CCCC1` [ONC0002726, roliprams], 79.57%. The result for `CCN(CC)CCOC(=O)C(c1ccccc1)C1CCCCC1` (stereo not shown) [ONC0003180, drofenine hydrochloride] reads 119.4%; that for `COCC1=C(C(=O)OC(C)OC(=O)OC(C)C)N2C(=O)[C@@H](NC(=O)/C(=N\OC)c3csc(N)n3)[C@H]2SC1` (stereo partly shown) [ONC0001902, cefpodoxime], 68.01%. As for `CCCCCCCCCCCCC/C=C/[C@@H](O)[C@@H](N)COP(=O)(O)OCC[N+](C)(C)C` [ONC0002992, sphingosylphosphorylcholine], the figure is 58.19%; as for `COc1ccccc1C1(O)CCN(CCCn2c3ccccc3c3ccccc32)CC1` [ONC0003043, nnc052090], 75.31%; as for `COc1ccc2c(c1)C=C1Cn3c-2c(C2CCCCC2)c2ccc(cc23)C(=O)NS(=O)(=O)N(C)CCOCCN(C)C1=O` [ONC0000837, tmc647055 choline salt], 82.86%. Take `CC(C)(C)c1ccc(CN2CCN(C(c3ccccc3)c3ccc(Cl)cc3)CC2)cc1` (stereo not shown) [ONC0001993, buclizine]: the “% viability” value is given as 93.43%.

For the compound `C[C@@H](c1ccc2nccn2c1)n1nnc2ncc(-c3cnn(C)c3)nc21` [ONC0001055, savolitinib], the “% viability” value is on record as 98.39%.

With `Cc1cc(N2CCCCC2)nc2ccccc12` [ONC0001185, ml204], the “% viability” value is on record as 94.66%. As for `C=CCOc1ccc(CC(=O)O)cc1Cl` [ONC0005454, alclofenac], the figure is 118.7%. The result for `COC(=O)C1=C(C)NC(C)=C(C(=O)O[C@H]2CCN(Cc3ccccc3)C2)[C@H]1c1cccc([N+](=O)[O-])c1` [ONC0003371, barnidipine hcl] reads 69.9%. Take `O=C(O)CCc1c[nH]c2ccccc12` [ONC0002848, 3indolepropionic acid]: the “% viability” value is given as 92.43%.

On to `CC1(COc2ccc3c(c2)ncn3-c2ccc3cccc(N4CCC(N)CC4)c3n2)COC1` [ONC0005080, crenolanib cp868596], for which the “% viability” value is listed as 89.76%. As for `OCCCNc1ccccc1` [ONC0003715, 3anilinopropan1ol], the figure is 126.6%; as for `CC(=O)c1ccc2c(c1)N(CCCN1CCC(CCO)CC1)c1ccccc1S2` [ONC0003795, piperacetazine], 78.77%; as for `N#Cc1cn([C@@H]2O[C@H](CO)[C@@H](O)[C@H]2O)c2ncnc(N)c12` [ONC0003230, toyocamycin], 99.22%.

In the case of `CO[C@@]1(NC(=O)Cc2cccs2)C(=O)N2C(C(=O)O)=C(COC(N)=O)CS[C@@H]21` [ONC0000614, cefoxitin sodium], the “% viability” value turned out to be 103.5%.

On to `Cc1cccc(C(C)c2cnc[nH]2)c1C` (stereo not shown) [ONC0000020, medetomidine], for which the “% viability” value is reported as 129.2%. `C[N+]1(C)CCCC(OC(=O)C(O)(c2ccccc2)c2ccccc2)C1` (stereo not shown) [ONC0000467, mepenzolate bromide]: the “% viability” value is 73.84%. The result for `C[C@@H](Oc1cc(-n2cnc3ccc(CN4CCN(C)CC4)cc32)sc1C(N)=O)c1ccccc1C(F)(F)F` [ONC0004607, gsk461364] reads 78.32%. The result for `O=C(CCCN1CCC(O)(c2ccc(Br)cc2)CC1)c1ccc(F)cc1` [ONC0004033, bromperidol] reads 59.81%.

For the compound `Cc1cc(-c2nc3cc(F)ccc3s2)ccc1NC(=O)[C@@H](N)CCCCN` [ONC0001974, phortress], the “% viability” value is listed as 72.02%. As for `COc1ccc(S(=O)(=O)Nc2nc(-c3cccc([N+](=O)[O-])c3)cs2)cc1OC` [ONC0002261, ro 618048], the figure is 90.96%; as for `CNCC[C@H](Oc1cccc2ccccc12)c1cccs1` [ONC0003995, duloxetine hydrochloride], 75.72%. As for `Nc1cccc2c(=O)[nH][nH]c(=O)c12` [ONC0001171, luminol], the figure is 97.7%.

For `CCCCCCCCCCC(O)C1C=CC2C(=O)N(c3ccccc3)C(=O)C2N1Nc1ccc([N+](=O)[O-])cc1` (stereo not shown) [ONC0001250, a12b4c3], the “% viability” value turned out to be 87.51%. Take `N=C(N)NC(=O)c1nc(Cl)c(N)nc1N` [ONC0000339, amiloride hydrochloride]: the “% viability” value stood at 57.59%. Turning to `O=C(CO)[C@@H](O)[C@@H](O)[C@H](O)CO` [ONC0004055, dtagatose], the “% viability” value is listed as 131.4%. The result for `CC(Cc1ccccc1)(NC(=O)CN)c1ccccc1` (stereo not shown) [ONC0002490, remacemide] reads 68.5%; that for `COc1ccc(Cc2cnc(N)nc2N)cc1OC` [ONC0004173, diaveridine], 54.75%.

In the case of `CN(C)C(=O)COC(=O)Cc1ccc(OC(=O)c2ccc(NC(=N)N)cc2)cc1` [ONC0004786, camostat mesilate foy305], the “% viability” value was 89.86%. The result for `CCCCOc1c(C(=O)c2c(F)cc(C)cc2F)c[nH]c2nncc1-2` [ONC0005009, bms265246] reads 77.83%; that for `CCC(=O)N1CCOc2c(cc(-c3ccc(OC)c(OC)c3)cc2OC[C@H]2CCCN(C)C2)C1` [ONC0000119, icbp112], 80.5%; that for `CC(C)(C)C(=O)OCOC(=O)[C@@H]1N2C(=O)[C@@H](NC(=O)[C@H](N)c3ccccc3)[C@H]2SC1(C)C` [ONC0002359, pivampicillin], 80.23%. As for `COc1cccc(OC)c1OCCNCC1COc2ccccc2O1` (stereo not shown) [ONC0004267, wb4101], the figure is 70.08%. For `O=C1NCN(c2ccccc2)C12CCN(CCCC(c1ccc(F)cc1)c1ccc(F)cc1)CC2` [ONC0003520, fluspirilene], the “% viability” value was found to be 48.06%. The result for `O=C(Nc1ccc(-c2ccnc(Nc3ccc(N4CCOCC4)cc3)n2)cc1)[C@@H]1CCCN1` [ONC0005105, xl019] reads 82.25%.
